Drawing on the supplement of paper PMC10735217, this text covers TEAD-luciferase reporter activity for 36 compounds.

Structures are written as SMILES. Structures can show the parent of a compound that is named as a salt. The list shows a part of the results. This data set is noisy: repeats of one test often differ as much as different tests do.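 In a drug-repurposing library screen, luminescence reads luciferase driven by eight TEAD-binding elements, stably integrated into human kidney-derived cells. Compounds scoring over five robust Z scores above the plate mean are called hits.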

The test deals with HEK293A TEAD-LUC reporter. Briefly: TEAD-luciferase reporter activity (YAP activation), robust Z score vs plate; higher = stronger YAP/TEAD activation. As to conditions: 24 h. In general terms: In a reporter assay the amount or activity of a reporter protein is the signal.

With `NC(=O)c1nnc(N[C@H]2CCCNC2)c2cc(-c3cccc(F)c3)sc12` [analog of Puquitinib], the TEAD-luciferase reporter activity (compound concentration: 2 uM) is inactive: 4.13.

Consider `COc1ccc(Cl)cc1NC(=O)Cc1ccc(S(=O)(=O)Nc2ncc(CC(C)C)cn2)cc1`, for which the TEAD-luciferase reporter activity (compound concentration: 200 nM) is inactive: -1.97, the TEAD-luciferase reporter activity (compound concentration: 2 uM) is inactive: 0.64 and the TEAD-luciferase reporter activity (compound concentration: 10 uM) is inactive: -1.5.

Regarding `COc1ccc(C(=O)/C(Cc2ccccc2)=C(\C(=O)[O-])c2ccc3c(c2)OCO3)cc1`, the TEAD-luciferase reporter activity is, setting by setting: (compound concentration: 200 nM) inactive: -1.22; (compound concentration: 2 uM) inactive: 1.02; (compound concentration: 10 uM) inactive: -0.0429.

Turning to `Cc1nc(Cc2ccccc2)c2c(c1OCCCCNC(C)C)COC2` [Barucainide], the TEAD-luciferase reporter activity (compound concentration: 200 nM) is inactive: -0.494, the TEAD-luciferase reporter activity (compound concentration: 2 uM) is inactive: -1.73 and the TEAD-luciferase reporter activity (compound concentration: 10 uM) was inactive: -0.773.

Turning to `CSc1ccc2ncn(/C=C/C(=O)O)c(=O)c2c1` [tiacrilast], the TEAD-luciferase reporter activity reads like this: (compound concentration: 200 nM) inactive: 0.268; (compound concentration: 2 uM) inactive: -1.08; (compound concentration: 10 uM) inactive: 0.109.

On to `COc1ccc(CCN(C)CCCC2(c3ccc(OC)c(OC)c3)S(=O)(=O)CCCS2(=O)=O)cc1OC`, for which the TEAD-luciferase reporter activity by setting is: (compound concentration: 200 nM) inactive: -1.11; (compound concentration: 2 uM) inactive: -2; (compound concentration: 10 uM) inactive: 2.07.

As for `Cc1oc(-c2ccccc2)nc1CCOc1ccc(CC2SC(=O)NC2=O)cc1` (stereo unspecified), the TEAD-luciferase reporter activity by setting is: (compound concentration: 200 nM) inactive: 0.457; (compound concentration: 2 uM) inactive: -1.76; (compound concentration: 10 uM) inactive: -0.219.

Consider `CS(=O)(=O)Nc1ccc(C(=O)O[C@@H](Cc2c(Cl)c[n+]([O-])cc2Cl)c2ccc(OC(F)F)c(OCC3CC3)c2)cc1OCC1CC1`, for which the TEAD-luciferase reporter activity was inactive: -0.604 (compound concentration: 200 nM), inactive: -1.78 (compound concentration: 2 uM) and inactive: -0.468 (compound concentration: 10 uM).

Turning to `Cc1ccc(CCN2CCCC23Cc2ccccc2CNC3=O)cc1` (stereo unspecified), the TEAD-luciferase reporter activity runs as follows: (compound concentration: 200 nM) inactive: -0.772; (compound concentration: 10 uM) inactive: 1.17.

On to `NNc1nncc2ccccc12` [hydralazine, Fisons], for which, for the setting “compound concentration: 2 uM”, the TEAD-luciferase reporter activity is inactive: -0.267.

Turning to `NNc1nncc2ccccc12` [Hydralazine hydrochloride], the TEAD-luciferase reporter activity by setting is: (compound concentration: 200 nM) inactive: -0.43; (compound concentration: 10 uM) inactive: 1.44.

Take `O[C@@H]1C[C@@H](Oc2nc(N3CCNCC3)nc3ccccc23)C[C@@H]1O`: the TEAD-luciferase reporter activity is, setting by setting: (compound concentration: 200 nM) inactive: -0.841; (compound concentration: 2 uM) inactive: 0.0201; (compound concentration: 10 uM) inactive: 1.52.

As for `Cn1c(=O)c2c(ncn2CCOS(=O)(=O)O)n(C)c1=O`, the TEAD-luciferase reporter activity (compound concentration: 200 nM) is inactive: -1.79, the TEAD-luciferase reporter activity (compound concentration: 2 uM) is inactive: 0.255 and the TEAD-luciferase reporter activity (compound concentration: 10 uM) was inactive: -0.31.

Consider `CN(C)/N=N/c1ccc(C(=O)c2ccc(OCCC(=O)NCC(=O)O)cc2)cc1`, for which the TEAD-luciferase reporter activity is, setting by setting: (compound concentration: 200 nM) inactive: -0.592; (compound concentration: 2 uM) inactive: -1.05.

As to `C[N+](C)(C)C1CCC(CC2CCC([N+](C)(C)C)CC2)CC1` (stereo unspecified) [Mebezonium Iodide], the TEAD-luciferase reporter activity was inactive: -0.978 (compound concentration: 200 nM), inactive: 0.023 (compound concentration: 2 uM) and inactive: 1.18 (compound concentration: 10 uM).

`COc1ccc(S(N)(=O)=O)cc1C(=O)NC[C@@H]1CCCN1CC1CC1`: the TEAD-luciferase reporter activity runs as follows: (compound concentration: 200 nM) inactive: -2.39; (compound concentration: 2 uM) inactive: 3.31; (compound concentration: 10 uM) inactive: -0.521.

For `CN(C)S(=O)(=O)c1ccc2c(c1)N(CCCN1CCC(CCO)CC1)c1ccccc1S2`, the TEAD-luciferase reporter activity was inactive: -2.3 (compound concentration: 200 nM), inactive: -0.815 (compound concentration: 2 uM) and inactive: 0.0716 (compound concentration: 10 uM).

`Cc1c[nH]c(=O)n(CCCN2CCN(c3ccccc3OCC(F)(F)F)CC2)c1=O`: the TEAD-luciferase reporter activity reads like this: (compound concentration: 200 nM) inactive: -1.35; (compound concentration: 2 uM) inactive: -2.65; (compound concentration: 10 uM) inactive: 0.512.

As for `c1ccc(C(Nc2nc3ccccc3o2)c2ccccn2)cc1` (stereo unspecified), the TEAD-luciferase reporter activity reads like this: (compound concentration: 200 nM) inactive: -2.64; (compound concentration: 2 uM) inactive: 2.38; (compound concentration: 10 uM) inactive: -0.544.

For the compound `C/C=C1\[C@H]2C=C(C)C[C@]1(N)c1ccc(O)nc1C2` [huperzine A, Indevus], the TEAD-luciferase reporter activity by setting is: (compound concentration: 200 nM) inactive: 0.0583; (compound concentration: 10 uM) inactive: -0.954.

Regarding `C/C=C1\[C@H]2C=C(C)C[C@]1(N)c1ccc(O)nc1C2` [huperzine A], the TEAD-luciferase reporter activity (compound concentration: 2 uM) is inactive: -0.0633.

In the case of `COC(=O)[C@H](c1ccccc1)N1CCC(c2ccc(NC(=O)c3ccccc3-c3ccc(C(F)(F)F)cc3)cc2)CC1` [usistapide], the TEAD-luciferase reporter activity by setting is: (compound concentration: 200 nM) inactive: -0.957; (compound concentration: 2 uM) inactive: -0.958; (compound concentration: 10 uM) inactive: 4.57.

Turning to `COc1ccc(CCO[C@@H]2CCCC[C@H]2N2CC[C@@H](O)C2)cc1OC` [vernakalant hydrochloride], the TEAD-luciferase reporter activity (compound concentration: 200 nM) is inactive: 0.432, the TEAD-luciferase reporter activity (compound concentration: 2 uM) is inactive: -0.201 and the TEAD-luciferase reporter activity (compound concentration: 10 uM) was inactive: -1.03.

On to `CC(=O)Nc1ccc(C(=O)OCCOc2ccccc2C)cc1`, for which the TEAD-luciferase reporter activity by setting is: (compound concentration: 200 nM) inactive: 3.04; (compound concentration: 2 uM) inactive: -0.88; (compound concentration: 10 uM) inactive: -0.081.

As for `O=C(c1ccc2c(c1)OCO2)N1CCC(N2Cc3ccccc3C2=O)CC1`, the TEAD-luciferase reporter activity is, setting by setting: (compound concentration: 200 nM) inactive: 1.44; (compound concentration: 10 uM) inactive: -0.728.

Regarding `CC(C(=O)O)c1ccc(Oc2nccs2)cc1` (stereo unspecified), the TEAD-luciferase reporter activity (compound concentration: 200 nM) is inactive: -0.672, the TEAD-luciferase reporter activity (compound concentration: 2 uM) is inactive: 1.49 and the TEAD-luciferase reporter activity (compound concentration: 10 uM) was inactive: -1.02.

As for `CCOC(=O)CCNC(=O)N[C@H]1CCN(c2ccc(C(=N)N)cc2)C1=O` [Orbofiban acetate], the TEAD-luciferase reporter activity was inactive: -2.25 (compound concentration: 200 nM), inactive: 1.6 (compound concentration: 2 uM) and inactive: 0.585 (compound concentration: 10 uM).

With `Cc1cc(NC(=O)CC(=O)[O-])cc(C)c1Oc1ccc(O)c(C(O)c2ccc(F)cc2)c1` (stereo unspecified), the TEAD-luciferase reporter activity is inactive: -2.04 (compound concentration: 200 nM), inactive: -0.615 (compound concentration: 2 uM) and inactive: -1.46 (compound concentration: 10 uM).

On to `CC(C)NC(=O)C[C@@H]1CCCN(C(=O)c2ccc(N3CCCC3)cc2Cl)c2ccccc21`, for which the TEAD-luciferase reporter activity by setting is: (compound concentration: 200 nM) inactive: 0.546; (compound concentration: 2 uM) inactive: 1.35; (compound concentration: 10 uM) inactive: 0.148.

In the case of `COc1ccc(-c2n/c(=N/c3ccccc3)sn2-c2ccccc2)cc1`, the TEAD-luciferase reporter activity is inactive: -1.63 (compound concentration: 200 nM), inactive: 1.7 (compound concentration: 2 uM) and inactive: 1.3 (compound concentration: 10 uM).

For the compound `CCCCS(N)(=O)=CCC(N)C(=O)O` (stereo unspecified) [Buthionine sulphoximine], the TEAD-luciferase reporter activity (compound concentration: 200 nM) was inactive: -1.13 and the TEAD-luciferase reporter activity (compound concentration: 10 uM) was inactive: 0.211.

For `O=Cc1ccc(CO)o1`, the TEAD-luciferase reporter activity (compound concentration: 200 nM) is inactive: -0.154, the TEAD-luciferase reporter activity (compound concentration: 2 uM) was inactive: 0.794 and the TEAD-luciferase reporter activity (compound concentration: 10 uM) is inactive: -0.047.

`COc1cccc(CCc2ccccc2OCC(CN(C)C)OC(=O)CCC(=O)O)c1` (stereo unspecified) [sarpogrelate hydrochloride, KunWha Pharmaceutical]: the TEAD-luciferase reporter activity (compound concentration: 200 nM) was inactive: -0.93, the TEAD-luciferase reporter activity (compound concentration: 2 uM) was inactive: -0.0126 and the TEAD-luciferase reporter activity (compound concentration: 10 uM) was inactive: 3.13.

Consider `COC[C@H](C)Oc1cc(Oc2cnc(C(=O)N3CCC3)cn2)cc(C(=O)Nc2ccc(C)nc2)c1`, for which the TEAD-luciferase reporter activity runs as follows: (compound concentration: 200 nM) inactive: -1.06; (compound concentration: 2 uM) inactive: -1.6; (compound concentration: 10 uM) inactive: 0.658.

`C#CCOc1ccc(Nc2nc(Nc3ccc(C)c(S(N)(=O)=O)c3)ncc2F)cc1`: the TEAD-luciferase reporter activity by setting is: (compound concentration: 200 nM) inactive: -0.195; (compound concentration: 2 uM) inactive: -1.69; (compound concentration: 10 uM) inactive: 0.791.

On to `CCCCCCCCCCCCCCCCCC(=O)OC[C@H](COP(=O)(O)OCC[N+](C)(C)C)OC(=O)CCCCCCCCCCCCCCCCC.COc1cc([C@H]2Oc3cc([C@H]4Oc5cc(O)cc(O)c5C(=O)[C@@H]4O)ccc3O[C@@H]2CO)ccc1O` [Silybin phosphatidylcholine complex], for which the TEAD-luciferase reporter activity runs as follows: (compound concentration: 200 nM) inactive: -0.564; (compound concentration: 2 uM) inactive: -0.106; (compound concentration: 10 uM) inactive: 1.29.
